Assay results: patent US7160905B2, “Hydroxyethylene compounds with Asp2 inhibitory activity” (SmithKline Beecham p.l.c., priority 2001, dated 2007)
Some results were stated once for a whole list of compounds, not compound by compound. Some ranges recur; such a range may be that of the whole group of compounds.

Amino acid sequences for entries named in this document (tags omitted). Residues count along the entry.
UniProt P07339, 65-412, species assumed: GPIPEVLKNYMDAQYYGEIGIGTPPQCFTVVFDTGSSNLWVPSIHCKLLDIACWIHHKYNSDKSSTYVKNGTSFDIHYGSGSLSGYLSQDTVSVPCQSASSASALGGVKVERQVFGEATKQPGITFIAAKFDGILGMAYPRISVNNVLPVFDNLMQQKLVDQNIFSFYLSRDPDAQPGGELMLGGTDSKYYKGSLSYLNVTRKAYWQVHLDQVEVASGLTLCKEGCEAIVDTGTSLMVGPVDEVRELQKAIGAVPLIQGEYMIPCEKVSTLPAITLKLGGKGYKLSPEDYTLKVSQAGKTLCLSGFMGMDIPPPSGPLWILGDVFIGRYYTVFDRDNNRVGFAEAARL
UniProt P56817, 46-501: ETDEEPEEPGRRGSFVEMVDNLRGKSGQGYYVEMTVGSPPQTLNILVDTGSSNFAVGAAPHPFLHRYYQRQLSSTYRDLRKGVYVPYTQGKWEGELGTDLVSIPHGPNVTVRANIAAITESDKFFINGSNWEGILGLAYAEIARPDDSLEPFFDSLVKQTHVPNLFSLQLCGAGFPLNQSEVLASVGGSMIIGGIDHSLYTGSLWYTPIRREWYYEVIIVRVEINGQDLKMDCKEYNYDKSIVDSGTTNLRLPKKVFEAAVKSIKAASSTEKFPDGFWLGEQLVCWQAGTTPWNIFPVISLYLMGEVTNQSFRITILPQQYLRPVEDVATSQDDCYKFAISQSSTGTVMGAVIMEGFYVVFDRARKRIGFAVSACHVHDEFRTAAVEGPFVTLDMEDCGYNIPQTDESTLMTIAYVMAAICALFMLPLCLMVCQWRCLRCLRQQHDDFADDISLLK

Experiments:
Assay type in all cases: biochemical
Cathepsin D = Cathepsin D (Homo sapiens, UniProt P07339); assay: Cathepsin D inhibitory assay (FAM-[SEVNLDAEFK]-TAMRA fluorescence); settings: Assay (III), 1 h at room temperature, pH 4.5; read-out: inhibition (CatD)
Method: (III) Cathepsin D Inhibitory Assay
(§1) For each compound being assayed, in a 384 well plate, is added:— • a) 1 μl of a DMSO solution of the test compound (IC50 curve uses ten 1 in 2 serial dilutions from 500 μM). • b) 10 μl of substrate (FAM-[SEVNLDAEFK]-TAMRA) solution in buffer. This is prepared by diluting 2 ml of a 2 mM DMSO solution of the substrate into 400 ml of buffer (100 mM Sodium acetate pH=4.5, 1 l Milli-Q water, 0.06% Triton X-100 (0.5 ml/l), pH adjusted to 4.5 using glacial acetic acid). • c) 10 μl enzyme solution. This is prepared by diluting 1.6 ml of a 200 unit/ml (in 10 mM HCl) enzyme solution into 398.4 ml of buffer (prepared as above).
(§2) Blank wells (enzyme solution replaced by buffer) are included as controls on each plate. Wells are incubated for 1 h at room temperature and fluorescence read using a Tecan Ultra Fluorimeter/Spectrophotometer (485 nm excitation, 535 nm emission).

Asp-1 = biological target: T1, Asp-1 (Homo sapiens, UniProt Q9Y5Z0); assay: Asp-1 inhibitory assay (FAM-[SEVNLDAEFK]-TAMRA fluorescence); settings: Assay (II), 2 h at room temperature, pH 4.5; read-out: inhibition (Asp-1)
T1 sequence (Q9Y5Z0 63-518): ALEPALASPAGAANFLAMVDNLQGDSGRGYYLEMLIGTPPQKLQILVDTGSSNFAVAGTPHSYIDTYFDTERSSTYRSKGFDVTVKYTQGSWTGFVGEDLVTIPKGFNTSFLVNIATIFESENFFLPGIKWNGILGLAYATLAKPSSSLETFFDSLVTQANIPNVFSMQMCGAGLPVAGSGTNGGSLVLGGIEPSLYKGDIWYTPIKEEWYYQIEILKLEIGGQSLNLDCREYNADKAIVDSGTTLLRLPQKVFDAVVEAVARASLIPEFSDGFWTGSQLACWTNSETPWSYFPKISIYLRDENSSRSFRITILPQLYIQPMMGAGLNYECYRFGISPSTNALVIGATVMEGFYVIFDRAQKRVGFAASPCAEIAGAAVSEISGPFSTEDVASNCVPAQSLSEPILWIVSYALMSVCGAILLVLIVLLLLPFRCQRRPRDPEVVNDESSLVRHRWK
Method: (II) Asps-1 Inhibitory Assay
as §1, with “4” for “1.6”, “6.3 μM” for “200 unit/ml (in 10 mM HCl)”, “496” for “398.4”, “(100 mM Sodium acetate pH=4.5, 40 mM sodium chloride, 900 ml Milli-Q water, 100 ml glycerol, 0.2% CHAPS (2 g/l), pH adjusted to 4.5 using glacial acetic acid).” for “(prepared as above).”
Blank wells (enzyme solution replaced by buffer) are included as controls on each plate. Wells are incubated for 2 h at room temperature and fluorescence read using a Tecan Ultra Fluorimeter/Spectrophotometer (485 nm excitation, 535 nm emission).

Asp-2 = Asp-2 (Homo sapiens, UniProt P56817); assay: Asp-2 inhibitory assay (FAM-[SEVNLDAEFK]-TAMRA fluorescence); settings: Assay (I), 1 h at room temperature, pH 4.5; read-out: ranges of inhibition (Asp-2)
Method: (I) Asp-2 Inhibitory Assay
as §1, with “μM)” for “μM).”, “acid). Aminomethyl fluorescein (FAM) and tetramethyl rhodamine (TAMRA) are fluorescent molecules which co-operate to emit fluorescence at 535 nm upon cleavage of the SEVNLDAEFK peptide.” for “acid).”, “16” for “1.6”, “500 nM” for “200 unit/ml (in 10 mM HCl)”, “384” for “398.4”
as §2

Row | SMILES | IC50 (Cathepsin D) | IC50 (Asp-1) | IC50 (Asp-2)
1 | C[C@H](C[C@H](O)[C@H](Cc1ccccc1)NC(=O)c1cc(N2CCCC2=O)cc(S(C)(=O)=O)c1)C(=O)NC1CC2CCC1C2 (stereo partly drawn) [Example E7, N-[(1S,2S,4R)-1-Benzyl-4-(bicyclo[2.2.1]hept-2-ylcarbamoyl)-2-hydroxypentyl]3-methylsulfonyl-5-(2-oxopyrrolidin-1-yl)-benzamide] | 0.01 to 2.7 µM | 0.01 to 0.2 µM | 0.01 to 0.16 µM
2 | COc1cc(C(=O)N[C@@H](Cc2ccccc2)[C@@H](O)C[C@@H](C)C(=O)NC2CC3CCC2C3)cc(S(C)(=O)=O)n1 (stereo partly drawn) [Example E8, N-[(1S,2S,4R)-1-Benzyl(bicyclo[2.2.1]hept-2-ylcarbamoyl)-2-hydroxypentyl]-3-methoxy-5-methylsulfonylpyridine-4-carboxamide] | 0.01 to 2.7 µM | 0.01 to 0.2 µM | 0.01 to 0.16 µM
3 | CCCOc1cc(C(=O)N[C@@H](Cc2ccccc2)[C@@H](O)C[C@@H](CCC(C)C)C(=O)NC2CC3CCC2C3)cc(S(C)(=O)=O)c1 (stereo partly drawn) [Example E5, N-[(1S,2S,4R)-1-Benzyl-4-(bicyclo[2.2.1]hept-2-ylcarbamoyl)-2-hydroxy-7-methyl-octyl]-3-n-propoxy-5-methylsulfonyl benzainide] | 0.01 to 2.7 µM | 0.01 to 0.2 µM | 0.01 to 0.16 µM
4 | COc1cc(C(=O)N[C@@H](Cc2ccccc2)[C@@H](O)C[C@@H](C)C(=O)NC2CCCCC2)cc(S(C)(=O)=O)n1 [Example E6, N-[(1S,2S,4R)-1-Benzyl-4-cyclohexylcarbamoyl-2-hydroxypentyl]-3-methoxy-5-methylsulfonylpyridine-4-carboxamide] | 0.01 to 2.7 µM | 0.01 to 0.2 µM | 0.01 to 0.16 µM

Results, then the compound that gave them:

Row | IC50 (Cathepsin D) | IC50 (Asp-1) | IC50 (Asp-2) | SMILES
5 | 0.01 to 2.7 µM | 0.01 to 0.2 µM | 0.01 to 0.16 µM | COc1cc(C(=O)N[C@@H](Cc2ccccc2)[C@@H](O)C[C@@H](C)C(=O)NC2CC3CCC2C3)cc(S(C)(=O)=O)c1 (stereo partly drawn) [Example E3, N-[(1S,2S,4R)-1-Benzyl-4-(bicyclo[2.2.1]hept-2-ylcarbamoyl)-2-hydroxypentyl]-3-methoxy-5-methylsulfonylbenzamide]
6 | 0.01 to 2.7 µM | 0.01 to 0.2 µM | 0.01 to 0.16 µM | CCCOc1cc(C(=O)N[C@@H](Cc2ccccc2)[C@@H](O)C[C@@H](C)C(=O)NC2CC3CCC2C3)cc(S(C)(=O)=O)c1 (stereo partly drawn) [Example E4, N-[(1S,2S,4R)-1-Benzyl-4-(bicyclo[2.2.1]hept-2-ylcarbamoyl)-2-hydroxypentyl]-3-methylsulfonyl-5-n-propoxybenzamide]
